Common to all, as to assay: microbe, parasite or virus in culture
What all share (format): cell-based

One assay relates to SARS-CoV-2. Particulars: Severe acute respiratory syndrome coronavirus 2, Vero C1008, read-out: IC50, infection rate of SARS-CoV-2.
Assay [1] has as its system VSVΔG-SARS2-S (pseudo-type VSV with SARS-CoV-2 spike protein). Particulars: Vesicular stomatitis virus, Vero C1008, 20 h, read-out: IC50, VSVΔG-SARS2-S infection.
Assay [2] deals with pseudo-typed VSV having a SARS-CoV spike protein (SARS-CoV-S). Conditions: Vesicular stomatitis virus, Vero C1008, 20 h, read-out: IC50, infection with pseudo-typed VSV having SARS-CoV spike protein.

A word on the IC50: it is the midpoint of a concentration-inhibition curve.

Turning to `CCN(CC)CCOc1ccc(/C(=C(/Cl)c2ccccc2)c2ccccc2)cc1` [Clomifene, clomifene], the figures for the IC50 (in the assay on SARS-CoV-2; in assay [1]; in assay [2]) were 6.7 µM, 4.4 µM and 5.8 µM, respectively.

The values above are taken from US20230147364A1, “PROPHYLACTIC OR THERAPEUTIC AGENT FOR RNA VIRUS-RELATED DISEASES” (priority 2020, published 2023).
